Values of other authors in patent publication US20160101072A1, “Therapeutic uses of enzyme inhibitors” (Proximagen Limited, priority 2013, published 2016).
For at least one compound, name, drawing or mass did not settle the structure.

Tested on: mdx phenotype
Conditions: with a reduction of both CD4+ and CD8+ cells; cited from earlier work

CO[C@H]1C[C@@H]2CC[C@@H](C)[C@@](O)(O2)C(=O)C(=O)N2CCCC[C@H]2C(=O)O[C@H]([C@H](C)C[C@@H]2CC[C@@H](O)[C@H](OC)C2)CC(=O)[C@H](C)/C=C(\C)[C@@H](O)[C@@H](OC)C(=O)[C@H](C)C[C@H](C)/C=C/C=C/C=C/1C [Rapamycin]
effect on mdx phenotype: ameliorates the mdx phenotype
